Experimental data reported in publication PMC2935384.

Sequences of proteins named here, by UniProt entry; tags and fusion partners are left off. A change or cut given only in a name is not applied to a line headed by its entry.
UniProt Q9QXK9: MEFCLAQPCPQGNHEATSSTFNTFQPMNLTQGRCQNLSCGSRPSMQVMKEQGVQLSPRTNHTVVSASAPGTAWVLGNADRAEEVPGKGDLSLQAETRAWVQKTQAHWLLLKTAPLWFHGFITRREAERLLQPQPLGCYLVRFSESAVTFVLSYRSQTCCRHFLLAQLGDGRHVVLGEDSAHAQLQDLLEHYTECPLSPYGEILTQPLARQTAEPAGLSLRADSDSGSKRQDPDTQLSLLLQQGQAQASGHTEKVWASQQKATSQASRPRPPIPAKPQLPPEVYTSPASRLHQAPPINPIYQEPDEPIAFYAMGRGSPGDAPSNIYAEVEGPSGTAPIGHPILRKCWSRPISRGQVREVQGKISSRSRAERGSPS

B1: MEKK2 (enzyme, UniProt Q9Y2U5 1-619)
chain: MDDQQALNSIMQDLAVLHKASRPALSLQETRKAKSSSPKKQNDVRVKFEHRGEKRILQFPRPVKLEDLRSKAKIAFGQSMDLHYTNNELVIPLTTQDDLDKAVELLDRSIHMKSLKILLVINGSTQATNLEPLPSLEDLDNTVFGAERKKRLSIIGPTSRDRSSPPPGYIPDELHQVARNGSFTSINSEGEFIPESMDQMLDPLSLSSPENSGSGSCPSLDSPLDGESYPKSRMPRAQSYPDNHQEFSDYDNPIFEKFGKGGTYPRRYHVSYHHQEYNDGRKTFPRARRTQGTSLRSPVSFSPTDHSLSTSSGSSIFTPEYDDSRIRRRGSDIDNPTLTVMDISPPSRSPRAPTNWRLGKLLGQGAFGRVYLCYDVDTGRELAVKQVQFDPDSPETSKEVNALECEIQLLKNLLHERIVQYYGCLRDPQEKTLSIFMEYMPGGSIKDQLKAYGALTENVTRKYTRQILEGVHYLHSNMIVHRDIKGANILRDSTGNVKLGDFGASKRLQTICLSGTGMKSVTGTPYWMSPEVISGEGYGRKADIWSVACTVVEMLTEKPPWAEFEAMAAIFKIATQPTNPKLPPHVSDYTRDFLKRIFVEAKLRPSADELLRHMFVHYH

Legend:
[1] = target: T1, MEKK2 (human (endogenous in HeLa)) (UniProt Q9Y2U5); assay: pull-down; in vitro binding assay: MEKK2 immunoprecipitated from HeLa lysates (with or without EGF), washed, incubated overnight with 2 µg GST-Lad1 in 50 mM β-glycerophosphate, 100 mM NaCl, 1 mM DTT with various calcium concentrations; bound GST-Lad1 by anti Lad1 blot; binding weak without or at low calcium, elevated at 0.5–1 µM, reduced above 1 µM; both purified
T1 sequence: B1 chain

GFP-Lad1 (1–366) [2] = target: GFP-Lad1 (1–366) (UniProt Q9QXK9); assay: co-IP; GFP-Lad1 transfected HeLa cells; anti GFP Ab precipitates, endogenous MEKK2 by anti MEKK2 blot; resting cells, EGF (20 ng/ml) time course, ionomycin (1 µM) pretreatment
GFP-Lad1 (1–366) [3] = target: GFP-Lad1 (1–366) (UniProt Q9QXK9); assay: co-IP; as the GFP-Lad1 co-IP, cells pretreated with BAPTA-AM (15 µM, 15 min) before EGF

Molecule	binding [1]	binding (GFP-Lad1 (1–366) [2])	binding (GFP-Lad1 (1–366) [3])
GST-Lad1 (from UniProt Q9QXK9-2)	binds	–	–
B1	–	binds	binds weakly

No constants are given. Whether binding was seen depends on the method and setting. Binding seen in cells or lysates may run through a third protein. A result given as binding can be weak or reduced; the word gives no strength.
